Results published in article PMC3618516, “A Systematic Screen of FDA-Approved Drugs for Inhibitors of Biological Threat Agents” (PLoS ONE, 2013).

Test system: Bacillus anthracis
Assay: microbe, parasite or virus in culture
Type: cell-based
Conditions: J774.A1, 15 h, read-out: Bacillus anthracis ICR (% protection)

SMILES: CCC[C@@H]1C[C@@H](C(=O)N[C@@H]([C@H]2O[C@H](SC)[C@H](O)[C@@H](O)[C@H]2O)[C@H](C)Cl)N(C)C1 [Clindamycin]
- inhibition at 50 µM: 92%
